Values from PubChem BioAssay AID504784 (Drosophila RNAi Screening Center, 2011).
Screen: 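Genome-wide knock-down for genes giving too much or too little stored lipid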 (primary screen). System: Drosophila Kc167 embryonic cells. Knock-down reagent: long dsRNA against Drosophila genes, about 250 ng dsRNA per well. Timing: 4 days. Treatment: cells fed 400 µM oleic acid bound to BSA. Detection: 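Cells imaged and segmented; ratio of lipid droplet area to nuclear area, log-transformed, then normalised as a B-score over the screen; higher means more stored lipid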. Direction: droplet/nuclear area B-score: higher = more stored lipid (overstorage).
The screen tested about 17,000 reagents; below is an unselected part of those that have a named target and a result. 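Each column is one replicate's B-score; the combined score over replicates was not deposited, so single values may mislead.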 Reagent sequences are not shown.

no.	target gene	DRSC id	droplet/nuclear area B-score, replicate 1	droplet/nuclear area B-score, replicate 2
1	tamo	DRSC04446	1.15	0.186
2	elm	DRSC12309	-0.0973	4.19
3	Ance	DRSC01865	0.0737	0.108
4	Syt1	DRSC00156	-0.0472	0.134
5	Syt1	DRSC00157	0.0783	1.88
6	Syt1	DRSC00158	0.0263	0.112
7	Syt1	DRSC00840	-0.701	-2.29
8	Syt1	DRSC22077	-0.985	-0.101
9	Cyp4d14	DRSC18457	0.846	-2.21
10	CG10814	DRSC06004	-0.6	-0.0081
11	mAcon2	DRSC15629	1.43	-0.069
12	t-Grip128	DRSC07853	2.19	1.66
13	CG1801	DRSC20556	-0.13	0.532

Reprinted from above, 5 entries:
no.	target gene	DRSC id	droplet/nuclear area B-score, replicate 1	droplet/nuclear area B-score, replicate 2
7	Syt1	DRSC00840	-0.701	-2.29
8	Syt1	DRSC22077	-0.985	-0.101
9	Cyp4d14	DRSC18457	0.846	-2.21
10	CG10814	DRSC06004	-0.6	-0.0081
11	mAcon2	DRSC15629	1.43	-0.069

Further results:
no.	target gene	DRSC id	droplet/nuclear area B-score, replicate 1	droplet/nuclear area B-score, replicate 2
14	CG14985	DRSC08443	0.661	1.91
15	Mst85C	DRSC16746	-0.236	-0.195
16	Ndae1	DRSC00975	0.055	0.415
17	Ndae1	DRSC02770	-0.276	0.236
18	CG13297	DRSC09971	-1.76	-0.263
19	ssp5	DRSC14955		0.089
20	Ag5r2	DRSC19328	-1.13	-1.14
21	CG13018	DRSC06274	0.648	0.522
22	CG5157	DRSC10488	0.297	-0.439
23	Naa80	DRSC16429	0.242	-1.65
24	Bbd	DRSC06709	0.0906	-0.691
25	exex	DRSC10972	-0.35	-0.587
26	CG13721	DRSC08330	-0.0299	0.487
27	CG32295	DRSC23259	-0.847	-0.243
28	CG13511	DRSC04153	0.278	-1.1
29	mRRF1	DRSC10421	-1.08	-2.64
30	PQBP1	DRSC14393	0.634	0.0479
31	CARPA	DRSC17905	0.125	0.288
32	CARPA	DRSC21633	-0.0276	-2.52
33	dan	DRSC14406	-0.982	0.401
34	CG13196	DRSC06321	1.18	0.187
